Measured values reported in paper doi:10.1101/2025.11.13.688325.
Results are given in words; binding and its absence hold for the method and conditions named. In cells and extracts the contact can be indirect. Some results given as binding are weak or reduced against the parent protein; the word gives no strength.

Chains of the proteins cited; added tags and fusions are not shown. Lines headed by an entry give the natural chain unless they say otherwise; changes in a name come on top. A line that says so, or that is headed by a name, gives the form on record, which may keep a tag or linker.
tropomyosin receptor kinase C (TrkC), N-terminally NanoLuc- or SnapTag-tagged (Q16288-3, form named): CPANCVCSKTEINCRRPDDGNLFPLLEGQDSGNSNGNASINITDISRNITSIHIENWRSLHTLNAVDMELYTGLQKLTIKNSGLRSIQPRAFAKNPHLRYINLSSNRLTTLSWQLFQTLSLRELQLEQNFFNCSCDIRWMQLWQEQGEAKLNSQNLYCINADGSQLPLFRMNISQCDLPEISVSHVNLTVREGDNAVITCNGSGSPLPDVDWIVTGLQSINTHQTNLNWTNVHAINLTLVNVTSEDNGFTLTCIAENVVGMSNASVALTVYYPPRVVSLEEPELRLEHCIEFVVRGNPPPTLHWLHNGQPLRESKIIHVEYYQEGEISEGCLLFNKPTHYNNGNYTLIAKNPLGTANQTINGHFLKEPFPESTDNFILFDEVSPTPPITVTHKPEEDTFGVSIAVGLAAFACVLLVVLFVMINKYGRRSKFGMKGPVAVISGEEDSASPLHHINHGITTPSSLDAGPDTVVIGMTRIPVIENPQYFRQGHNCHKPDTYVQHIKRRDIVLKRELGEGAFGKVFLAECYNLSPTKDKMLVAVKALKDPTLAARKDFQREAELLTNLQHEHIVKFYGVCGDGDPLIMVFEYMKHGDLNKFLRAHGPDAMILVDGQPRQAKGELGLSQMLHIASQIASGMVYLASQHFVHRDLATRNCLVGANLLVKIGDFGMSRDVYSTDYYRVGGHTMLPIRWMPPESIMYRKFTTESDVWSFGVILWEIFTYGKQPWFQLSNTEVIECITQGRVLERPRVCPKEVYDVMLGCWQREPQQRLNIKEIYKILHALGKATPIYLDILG
tropomyosin receptor kinase A (TrkA), N-terminally NanoLuc- or SnapTag-tagged (P04629-2, form named): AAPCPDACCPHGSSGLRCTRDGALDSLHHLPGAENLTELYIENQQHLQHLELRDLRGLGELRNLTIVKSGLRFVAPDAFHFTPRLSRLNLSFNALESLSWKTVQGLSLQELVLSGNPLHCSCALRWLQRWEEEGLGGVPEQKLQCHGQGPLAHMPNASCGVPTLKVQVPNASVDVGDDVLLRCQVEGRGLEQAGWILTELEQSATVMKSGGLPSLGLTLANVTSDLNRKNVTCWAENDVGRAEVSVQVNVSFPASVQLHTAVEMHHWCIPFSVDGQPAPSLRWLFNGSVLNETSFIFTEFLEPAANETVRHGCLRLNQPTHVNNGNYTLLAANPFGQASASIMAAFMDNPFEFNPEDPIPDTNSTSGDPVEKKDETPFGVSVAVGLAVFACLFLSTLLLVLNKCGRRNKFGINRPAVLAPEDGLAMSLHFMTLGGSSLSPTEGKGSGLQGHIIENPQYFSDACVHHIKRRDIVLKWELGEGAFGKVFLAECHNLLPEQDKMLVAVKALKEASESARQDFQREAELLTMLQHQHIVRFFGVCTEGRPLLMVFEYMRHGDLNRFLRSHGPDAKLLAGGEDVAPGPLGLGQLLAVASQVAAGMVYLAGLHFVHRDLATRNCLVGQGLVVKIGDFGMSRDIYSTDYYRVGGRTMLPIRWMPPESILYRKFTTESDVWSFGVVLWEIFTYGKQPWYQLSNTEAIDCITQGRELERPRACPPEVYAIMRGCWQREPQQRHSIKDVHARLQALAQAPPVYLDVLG

How the values were obtained:
[1] = molecular target: tropomyosin receptor kinase C (TrkC), N-terminally NanoLuc- or SnapTag-tagged (human) (UniProt Q16288); assay: FRET or BRET
[2] = molecular target: tropomyosin receptor kinase A (TrkA), N-terminally NanoLuc- or SnapTag-tagged (human) (UniProt P04629); assay: FRET or BRET

| binding [1] | binding [2] | Substance |
| --- | --- | --- |
| binds | – | tropomyosin receptor kinase C (TrkC), N-terminally NanoLuc- or SnapTag-tagged (from UniProt Q16288-3 32-825) |
| – | binds | tropomyosin receptor kinase A (TrkA), N-terminally NanoLuc- or SnapTag-tagged (from UniProt P04629-2 33-790) |
